Consider 13 molecules from publication PMC8390644.

Protein sequences, listed by entry. Tags and fused reporters are not part of them.
UniProt Q01860: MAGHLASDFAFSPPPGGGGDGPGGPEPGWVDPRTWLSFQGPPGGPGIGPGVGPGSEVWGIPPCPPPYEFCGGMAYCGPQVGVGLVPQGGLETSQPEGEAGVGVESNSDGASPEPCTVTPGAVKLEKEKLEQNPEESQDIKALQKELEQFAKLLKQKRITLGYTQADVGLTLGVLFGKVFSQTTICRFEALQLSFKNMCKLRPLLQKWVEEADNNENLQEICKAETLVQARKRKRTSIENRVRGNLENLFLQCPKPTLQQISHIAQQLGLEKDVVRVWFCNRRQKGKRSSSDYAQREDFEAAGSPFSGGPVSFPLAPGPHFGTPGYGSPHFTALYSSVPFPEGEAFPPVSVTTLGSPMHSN
UniProt P58107: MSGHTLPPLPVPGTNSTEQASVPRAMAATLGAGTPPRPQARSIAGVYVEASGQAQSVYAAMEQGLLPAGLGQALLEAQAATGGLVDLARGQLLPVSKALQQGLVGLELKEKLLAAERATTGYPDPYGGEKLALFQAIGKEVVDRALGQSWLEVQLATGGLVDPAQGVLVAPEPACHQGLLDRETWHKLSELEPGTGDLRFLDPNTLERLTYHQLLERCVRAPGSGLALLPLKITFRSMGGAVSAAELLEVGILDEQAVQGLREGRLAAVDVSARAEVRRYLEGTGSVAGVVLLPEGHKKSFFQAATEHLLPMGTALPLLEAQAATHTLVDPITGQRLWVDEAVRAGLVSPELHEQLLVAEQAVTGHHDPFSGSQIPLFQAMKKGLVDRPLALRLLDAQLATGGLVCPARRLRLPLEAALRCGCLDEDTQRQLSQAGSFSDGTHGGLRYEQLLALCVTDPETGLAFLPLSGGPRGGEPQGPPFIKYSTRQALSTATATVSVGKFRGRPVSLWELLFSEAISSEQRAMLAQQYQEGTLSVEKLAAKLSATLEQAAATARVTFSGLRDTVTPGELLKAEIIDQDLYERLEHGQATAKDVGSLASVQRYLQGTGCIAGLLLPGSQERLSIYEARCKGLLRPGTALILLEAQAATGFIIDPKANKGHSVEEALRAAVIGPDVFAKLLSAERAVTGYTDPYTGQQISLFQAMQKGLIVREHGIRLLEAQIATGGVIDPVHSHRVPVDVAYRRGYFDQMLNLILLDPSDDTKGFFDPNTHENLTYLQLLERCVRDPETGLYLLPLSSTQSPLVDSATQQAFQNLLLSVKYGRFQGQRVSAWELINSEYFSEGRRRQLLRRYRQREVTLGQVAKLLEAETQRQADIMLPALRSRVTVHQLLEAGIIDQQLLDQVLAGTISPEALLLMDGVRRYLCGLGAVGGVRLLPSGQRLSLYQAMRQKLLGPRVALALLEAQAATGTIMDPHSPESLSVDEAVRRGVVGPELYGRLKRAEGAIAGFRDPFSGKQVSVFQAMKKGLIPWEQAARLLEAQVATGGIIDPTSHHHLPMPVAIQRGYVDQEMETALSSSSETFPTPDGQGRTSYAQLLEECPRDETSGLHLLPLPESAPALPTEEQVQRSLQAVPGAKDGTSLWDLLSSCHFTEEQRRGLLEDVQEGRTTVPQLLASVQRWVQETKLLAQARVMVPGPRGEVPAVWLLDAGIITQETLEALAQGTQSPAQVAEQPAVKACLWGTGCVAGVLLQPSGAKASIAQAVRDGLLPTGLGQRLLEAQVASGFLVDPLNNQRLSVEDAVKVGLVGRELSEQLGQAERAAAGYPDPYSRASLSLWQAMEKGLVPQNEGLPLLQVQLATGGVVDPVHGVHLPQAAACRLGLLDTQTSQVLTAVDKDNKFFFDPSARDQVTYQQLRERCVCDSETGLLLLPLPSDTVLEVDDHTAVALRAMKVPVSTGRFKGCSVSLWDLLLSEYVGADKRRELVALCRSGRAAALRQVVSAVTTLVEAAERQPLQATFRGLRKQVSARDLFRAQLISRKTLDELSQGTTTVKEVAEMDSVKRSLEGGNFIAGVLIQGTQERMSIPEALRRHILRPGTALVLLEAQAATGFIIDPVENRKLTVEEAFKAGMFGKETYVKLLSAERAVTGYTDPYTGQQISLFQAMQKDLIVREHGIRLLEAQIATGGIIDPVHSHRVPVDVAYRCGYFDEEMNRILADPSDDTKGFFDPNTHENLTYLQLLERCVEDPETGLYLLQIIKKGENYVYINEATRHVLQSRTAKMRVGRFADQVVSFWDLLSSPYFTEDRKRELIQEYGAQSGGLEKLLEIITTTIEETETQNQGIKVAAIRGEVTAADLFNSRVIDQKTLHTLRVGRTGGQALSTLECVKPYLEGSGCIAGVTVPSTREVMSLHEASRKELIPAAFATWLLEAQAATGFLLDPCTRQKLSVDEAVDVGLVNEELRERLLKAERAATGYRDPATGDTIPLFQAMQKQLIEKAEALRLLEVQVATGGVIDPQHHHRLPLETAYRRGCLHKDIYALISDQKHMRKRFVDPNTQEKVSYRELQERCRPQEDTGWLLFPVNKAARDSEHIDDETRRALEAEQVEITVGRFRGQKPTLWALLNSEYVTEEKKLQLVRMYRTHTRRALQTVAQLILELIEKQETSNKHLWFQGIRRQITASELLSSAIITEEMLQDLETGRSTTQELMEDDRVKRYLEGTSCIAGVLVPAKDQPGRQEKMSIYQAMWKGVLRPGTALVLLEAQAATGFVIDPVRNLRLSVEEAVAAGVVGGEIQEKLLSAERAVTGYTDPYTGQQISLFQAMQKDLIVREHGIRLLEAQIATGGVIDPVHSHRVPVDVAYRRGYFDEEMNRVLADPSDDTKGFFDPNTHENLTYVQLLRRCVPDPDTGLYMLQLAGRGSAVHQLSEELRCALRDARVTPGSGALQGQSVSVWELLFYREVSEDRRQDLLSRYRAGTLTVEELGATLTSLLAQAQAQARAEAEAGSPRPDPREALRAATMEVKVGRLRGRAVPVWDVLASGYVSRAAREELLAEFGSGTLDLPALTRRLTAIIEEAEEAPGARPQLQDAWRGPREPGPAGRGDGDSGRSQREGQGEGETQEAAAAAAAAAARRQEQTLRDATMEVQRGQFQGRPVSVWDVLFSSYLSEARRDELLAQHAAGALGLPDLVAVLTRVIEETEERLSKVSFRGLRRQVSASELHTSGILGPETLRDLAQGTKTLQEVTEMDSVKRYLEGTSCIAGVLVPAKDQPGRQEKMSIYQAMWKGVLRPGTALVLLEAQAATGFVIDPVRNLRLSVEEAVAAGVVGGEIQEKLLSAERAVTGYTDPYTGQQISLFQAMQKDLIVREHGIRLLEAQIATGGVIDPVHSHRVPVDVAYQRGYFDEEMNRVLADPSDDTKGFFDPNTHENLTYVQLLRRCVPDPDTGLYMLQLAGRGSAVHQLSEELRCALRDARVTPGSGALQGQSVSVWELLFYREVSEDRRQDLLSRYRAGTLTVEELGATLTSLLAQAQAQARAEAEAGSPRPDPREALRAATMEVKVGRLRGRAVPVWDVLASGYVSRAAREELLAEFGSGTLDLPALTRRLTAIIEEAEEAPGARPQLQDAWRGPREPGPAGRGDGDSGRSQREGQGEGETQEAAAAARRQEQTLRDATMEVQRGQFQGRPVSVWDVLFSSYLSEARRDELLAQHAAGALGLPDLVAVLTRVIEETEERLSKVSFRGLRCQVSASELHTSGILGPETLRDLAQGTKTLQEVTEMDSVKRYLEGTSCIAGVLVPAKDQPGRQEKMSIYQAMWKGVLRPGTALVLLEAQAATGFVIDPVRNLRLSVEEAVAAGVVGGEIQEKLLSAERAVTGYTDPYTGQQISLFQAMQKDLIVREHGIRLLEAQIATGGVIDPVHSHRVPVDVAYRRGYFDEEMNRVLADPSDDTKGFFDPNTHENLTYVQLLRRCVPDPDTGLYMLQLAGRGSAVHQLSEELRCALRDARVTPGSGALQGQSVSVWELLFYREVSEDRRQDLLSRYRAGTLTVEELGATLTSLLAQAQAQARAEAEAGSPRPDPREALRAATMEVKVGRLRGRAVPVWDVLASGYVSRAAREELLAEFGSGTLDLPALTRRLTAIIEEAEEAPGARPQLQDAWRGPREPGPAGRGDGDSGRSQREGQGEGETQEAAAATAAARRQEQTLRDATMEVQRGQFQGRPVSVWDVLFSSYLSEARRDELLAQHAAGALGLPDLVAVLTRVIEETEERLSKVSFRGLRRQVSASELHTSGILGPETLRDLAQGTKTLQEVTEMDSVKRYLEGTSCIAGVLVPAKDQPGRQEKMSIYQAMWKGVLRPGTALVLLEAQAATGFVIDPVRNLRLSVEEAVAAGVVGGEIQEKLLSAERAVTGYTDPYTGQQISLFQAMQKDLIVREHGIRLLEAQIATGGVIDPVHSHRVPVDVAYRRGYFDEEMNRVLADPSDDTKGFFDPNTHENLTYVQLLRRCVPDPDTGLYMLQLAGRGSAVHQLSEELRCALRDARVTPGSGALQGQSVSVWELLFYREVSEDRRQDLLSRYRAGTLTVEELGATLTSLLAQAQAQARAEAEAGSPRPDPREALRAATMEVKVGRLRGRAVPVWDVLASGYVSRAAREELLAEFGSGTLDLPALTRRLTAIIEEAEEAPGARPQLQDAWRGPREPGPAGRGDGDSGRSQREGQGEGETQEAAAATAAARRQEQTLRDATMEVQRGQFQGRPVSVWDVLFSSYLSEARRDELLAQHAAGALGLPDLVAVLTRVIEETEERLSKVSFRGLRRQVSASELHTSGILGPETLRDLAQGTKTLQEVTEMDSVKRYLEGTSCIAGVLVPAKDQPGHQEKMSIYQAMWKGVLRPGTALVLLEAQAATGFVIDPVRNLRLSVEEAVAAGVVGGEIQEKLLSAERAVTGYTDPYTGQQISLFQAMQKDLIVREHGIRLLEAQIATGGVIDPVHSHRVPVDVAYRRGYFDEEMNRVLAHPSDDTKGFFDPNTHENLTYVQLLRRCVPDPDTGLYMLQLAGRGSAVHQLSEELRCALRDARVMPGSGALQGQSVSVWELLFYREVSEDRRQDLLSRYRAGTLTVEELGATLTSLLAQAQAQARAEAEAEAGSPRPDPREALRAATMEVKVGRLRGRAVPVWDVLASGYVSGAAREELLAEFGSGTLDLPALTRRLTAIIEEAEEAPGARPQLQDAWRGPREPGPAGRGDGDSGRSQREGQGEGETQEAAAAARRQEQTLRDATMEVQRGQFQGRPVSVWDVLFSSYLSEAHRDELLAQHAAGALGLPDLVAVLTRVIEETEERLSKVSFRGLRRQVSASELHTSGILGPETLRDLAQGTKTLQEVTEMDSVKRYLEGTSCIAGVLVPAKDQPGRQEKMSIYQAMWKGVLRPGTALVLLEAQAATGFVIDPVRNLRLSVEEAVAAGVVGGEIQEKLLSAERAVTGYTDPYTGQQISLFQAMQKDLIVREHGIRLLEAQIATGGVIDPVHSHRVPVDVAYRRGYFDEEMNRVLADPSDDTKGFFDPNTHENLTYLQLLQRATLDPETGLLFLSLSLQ
UniProt O60264: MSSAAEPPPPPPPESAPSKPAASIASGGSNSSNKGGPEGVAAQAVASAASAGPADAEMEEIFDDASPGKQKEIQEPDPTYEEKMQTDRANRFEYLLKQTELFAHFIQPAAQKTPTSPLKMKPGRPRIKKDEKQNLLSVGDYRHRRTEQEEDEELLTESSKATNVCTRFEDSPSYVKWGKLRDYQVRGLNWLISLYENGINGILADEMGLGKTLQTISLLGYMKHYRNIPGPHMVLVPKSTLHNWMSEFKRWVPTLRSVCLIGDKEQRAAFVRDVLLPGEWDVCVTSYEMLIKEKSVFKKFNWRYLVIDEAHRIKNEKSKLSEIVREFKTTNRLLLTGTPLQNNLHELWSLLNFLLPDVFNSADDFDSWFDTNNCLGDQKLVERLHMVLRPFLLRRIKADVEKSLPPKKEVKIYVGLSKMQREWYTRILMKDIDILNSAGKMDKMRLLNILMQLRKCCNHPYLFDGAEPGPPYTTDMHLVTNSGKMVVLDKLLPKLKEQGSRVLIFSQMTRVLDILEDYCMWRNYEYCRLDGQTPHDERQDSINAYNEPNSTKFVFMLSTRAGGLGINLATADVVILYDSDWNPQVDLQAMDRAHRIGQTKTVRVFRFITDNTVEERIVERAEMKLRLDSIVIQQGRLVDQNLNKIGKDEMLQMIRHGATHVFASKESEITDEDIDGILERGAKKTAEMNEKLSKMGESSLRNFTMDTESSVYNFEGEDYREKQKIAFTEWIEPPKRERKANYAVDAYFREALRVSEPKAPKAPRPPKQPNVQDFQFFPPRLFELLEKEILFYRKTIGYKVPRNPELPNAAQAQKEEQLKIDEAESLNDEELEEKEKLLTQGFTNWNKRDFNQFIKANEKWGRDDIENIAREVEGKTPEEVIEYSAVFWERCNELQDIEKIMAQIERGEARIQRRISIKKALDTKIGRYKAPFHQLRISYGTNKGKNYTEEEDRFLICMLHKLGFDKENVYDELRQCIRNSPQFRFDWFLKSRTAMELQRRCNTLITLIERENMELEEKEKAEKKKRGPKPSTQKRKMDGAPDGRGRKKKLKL

Results are given in words; binding and its absence hold for the method and conditions named. Binding seen in cells or lysates may run through a third protein. A yes stands for co-enrichment or nearness to the bait. Other partners may have been found.

For experiment [1], the target named is OCT4^3xFLBio (human (endogenous in WIBR2 hESCs)) (UniProt Q01860). Briefly: affinity purification with mass spectrometry; naïve hESCs; nuclear extract dialysed against buffer D (100 mM KCl), Benzonase, washes in buffer D with 0.02% NP40; SA-IP and FLAG-IP of WIBR2-OCT4^3xFLBio against BirA control (2i/L/DOX+RI, KLF2 and NANOG transgenes) and OCT4 antibody IP against IgG in WIBR2 and WIBR3 (4i/L/A); hit in at least three of four MS experiments, CCP score with FDR cutoff 0.1.

For experiment [2] the target is unchanged. Briefly: affinity purification with mass spectrometry; primed hESCs; nuclear extract dialysed against buffer D (100 mM KCl), Benzonase, washes in buffer D with 0.02% NP40; SA-IP and FLAG-IP of WIBR2-OCT4^3xFLBio against BirA control and OCT4 antibody IP against IgG in WIBR2 and WIBR3; hit in at least three of four MS experiments, CCP score with FDR cutoff 0.1.

Experiment [3] shares this target. The experiment in a line: affinity purification with mass spectrometry; naïve hESCs; nuclear extract dialysed against buffer D (100 mM KCl), Benzonase, washes in buffer D with 0.02% NP40; SA-IP and FLAG-IP of WIBR2-OCT4^3xFLBio against BirA control (2i/L/DOX+RI, KLF2 and NANOG transgenes) and OCT4 antibody IP against IgG in WIBR2 and WIBR3 (4i/L/A); hit in at least three of four MS experiments, CCP score with FDR cutoff 0.1. This is another data set of the same source.

Take “BRM (SMARCA2) (from UniProt P51531 1-1590)”: the binding entry in experiment [1] is “binds”. Consider “BRG1 (SMARCA4) (from UniProt P51532 1-1647)”, for which the binding entry in experiment [1] and in experiment [2] was “binds” each time. As to MSH6 (from UniProt P52701 1-1360), the binding entry in experiment [1] was “binds”. SMCHD1 (from UniProt A6NHR9 1-2005): the binding entry in experiment [1] was “binds”.

On to TOP2B (from UniProt Q02880 1-1626), for which, in experiment [2], the binding entry is given as “binds”. For EPPK1 (from UniProt P58107 1-5088), the binding result in experiment [1] was “binds”. Consider “SNF2H (SMARCA5) (from UniProt O60264 1-1052)”, for which the binding result in experiment [1] and in experiment [2] was “binds” in each case.

As to “SNF2L (SMARCA1) (from UniProt P28370 1-1042)”, the binding entry in experiment [2] is “binds”.

B1: SMC1A (protein, UniProt Q14683 1-1233)
chain: MGFLKLIEIENFKSYKGRQIIGPFQRFTAIIGPNGSGKSNLMDAISFVLGEKTSNLRVKTLRDLIHGAPVGKPAANRAFVSMVYSEEGAEDRTFARVIVGGSSEYKINNKVVQLHEYSEELEKLGILIKARNFLVFQGAVESIAMKNPKERTALFEEISRSGELAQEYDKRKKEMVKAEEDTQFNYHRKKNIAAERKEAKQEKEEADRYQRLKDEVVRAQVQLQLFKLYHNEVEIEKLNKELASKNKEIEKDKKRMDKVEDELKEKKKELGKMMREQQQIEKEIKEKDSELNQKRPQYIKAKENTSHKIKKLEAAKKSLQNAQKHYKKRKGDMDELEKEMLSVEKARQEFEERMEEESQSQGRDLTLEENQVKKYHRLKEEASKRAATLAQELEKFNRDQKADQDRLDLEERKKVETEAKIKQKLREIEENQKRIEKLEEYITTSKQSLEEQKKLEGELTEEVEMAKRRIDEINKELNQVMEQLGDARIDRQESSRQQRKAEIMESIKRLYPGSVYGRLIDLCQPTQKKYQIAVTKVLGKNMDAIIVDSEKTGRDCIQYIKEQRGEPETFLPLDYLEVKPTDEKLRELKGAKLVIDVIRYEPPHIKKALQYACGNALVCDNVEDARRIAFGGHQRHKTVALDGTLFQKSGVISGGASDLKAKARRWDEKAVDKLKEKKERLTEELKEQMKAKRKEAELRQVQSQAHGLQMRLKYSQSDLEQTKTRHLALNLQEKSKLESELANFGPRINDIKRIIQSREREMKDLKEKMNQVEDEVFEEFCREIGVRNIREFEEEKVKRQNEIAKKRLEFENQKTRLGIQLDFEKNQLKEDQDKVHMWEQTVKKDENEIEKLKKEEQRHMKIIDETMAQLQDLKNQHLAKKSEVNDKNHEMEEIRKKLGGANKEMTHLQKEVTAIETKLEQKRSDRHNLLQACKMQDIKLPLSKGTMDDISQEEGSSQGEDSVSGSQRISSIYAREALIEIDYGDLCEDLKDAQAEEEIKQEMNTLQQKLNEQQSVLQRIAAPNMKAMEKLESVRDKFQETSDEFEAARKRAKKAKQAFEQIKKERFDRFNACFESVATNIDEIYKALSRNSSAQAFLGPENPEEPYLDGINYNCVAPGKRFRPMDNLSGGEKTVAALALLFAIHSYKPAPFFVLDEIDAALDNTNIGKVANYIKEQSTCNFQAIVISLKEEFYTKAESLIGVYPEQGDCVISKVLTFDLTKYPDANPNPNEQ
With B1, in experiment [3], the binding entry was “binds”.

B2: NLRP7 (protein, UniProt Q8WX94 1-980)
chain: MTSPQLEWTLQTLLEQLNEDELKSFKSLLWAFPLEDVLQKTPWSEVEEADGKKLAEILVNTSSENWIRNATVNILEEMNLTELCKMAKAEMMEDGQVQEIDNPELGDAEEDSELAKPGEKEGWRNSMEKQSLVWKNTFWQGDIDNFHDDVTLRNQRFIPFLNPRTPRKLTPYTVVLHGPAGVGKTTLAKKCMLDWTDCNLSPTLRYAFYLSCKELSRMGPCSFAELISKDWPELQDDIPSILAQAQRILFVVDGLDELKVPPGALIQDICGDWEKKKPVPVLLGSLLKRKMLPRAALLVTTRPRALRDLQLLAQQPIYVRVEGFLEEDRRAYFLRHFGDEDQAMRAFELMRSNAALFQLGSAPAVCWIVCTTLKLQMEKGEDPVPTCLTRTGLFLRFLCSRFPQGAQLRGALRTLSLLAAQGLWAQMSVFHREDLERLGVQESDLRLFLDGDILRQDRVSKGCYSFIHLSFQQFLTALFYALEKEEGEDRDGHAWDIGDVQKLLSGEERLKNPDLIQVGHFLFGLANEKRAKELEATFGCRMSPDIKQELLQCKAHLHANKPLSVTDLKEVLGCLYESQEEELAKVVVAPFKEISIHLTNTSEVMHCSFSLKHCQDLQKLSLQVAKGVFLENYMDFELDIEFERCTYLTIPNWARQDLRSLRLWTDFCSLFSSNSNLKFLEVKQSFLSDSSVRILCDHVTRSTCHLQKVEIKNVTPDTAYRDFCLAFIGKKTLTHLTLAGHIEWERTMMLMLCDLLRNHKCNLQYLRLGGHCATPEQWAEFFYVLKANQSLKHLRLSANVLLDEGAMLLYKTMTRPKHFLQMLSLENCRLTEASCKDLAAVLVVSKKLTHLCLAKNPIGDTGVKFLCEGLSYPDCKLQTLVLQQCSITKLGCRYLSEALQEACSLTNLDLSINQIARGLWILCQALENPNCNLKHLRLKTYETNLEIKKLLEEVKEKNPKLTIDCNASGATAPPCCDFFC
As to B2, the binding result in experiment [3] is on record as “binds”.

B3: L1TD1 (protein, UniProt Q5T7N2 1-865)
chain: MSDVSTSVQSKFARLAKKKENITYMKREQLTETDKDIAPVLDLKCKDVSAIMNKFKVLMEIQDLMFEEMRETLKNDLKAVLGGKATIPEVKNSENSSSRTEFQQIINLALQKTGMVGKIEGENSKIGDDNENLTFKLEVNELSGKLDNTNEYNSNDGKKLPQGESRSYEVMGSMEETLCNIDDRDGNRNVHLEFTERESRKDGEDEFVKEMREERKFQKLKNKEEVLKASREEKVLMDEGAVLTLVADLSSATLDISKQWSNVFNILRENDFEPKFLCEVKLAFKCDGEIKTFSDLQSLRKFASQKSSVKELLKDVLPQKEEINQGGRKYGIQEKRDKTLIDSKHRAGEITSDGLSFLFLKEVKVAKPEEMKNLETQEEEFSELEELDEEASGMEDDEDTSGLEEEEEEPSGLEEEEEEEASGLEEDEASGLEEEEEQTSEQDSTFQGHTLVDAKHEVEITSDGMETTFIDSVEDSESEEEEEGKSSETGKVKTTSLTEKKASRRQKEIPFSYLVGDSGKKKLVKHQVVHKTQEEEETAVPTSQGTGTPCLTLCLASPSKSLEMSHDEHKKHSHTNLSISTGVTKLKKTEEKKHRTLHTEELTSKEADLTEETEENLRSSVINSIREIKEEIGNLKSSHSGVLEIENSVDDLSSRMDILEERIDSLEDQIEEFSKDTMQMTKQIISKERQRDIEERSRSCNIRLIGIPEKESYENRAEDIIKEIIDENFAELKKGSSLEIVSACRVPSKIDEKRLTPRHILVKFWNSSDKEKIIRASRERREITYQGTRIRLTADLSLDTLDARSKWSNVFKVLLEKGFNPRILYPAKMAFDFRGKTKVFLSIEEFRDYVLHMPTLRELLGNNIP
For B3, the binding result in experiment [3] is recorded as “binds”.

B4: BEND3 (protein, UniProt Q5T5X7 1-828)
chain: MNSTEFTEDVEEVLKSITVKVETEAEDAALDCSVNSRTSEKHSVDSVLTALQDSSKRKQLVSDGLLDSVPGVKRRRLIPEALLAGMRNRENSSPCQGNGEQAGRGRSLGNVWPGEEEPCNDATTPSYKKPLYGISHKIMEKKNPPSGDLLNVYELFEKANASNSPSSLRLLNEPQKRDCGSTGAGTDNDPNIYFLIQKMFYMLNTLTSNMSQLHSKVDLLSLEVSRIKKQVSPTEMVAKFQPPPEYQLTAAELKQIVDQSLSGGDLACRLLVQLFPELFSDVDFSRGCSACGFAAKRKLESLHLQLIRNYVEVYYPSVKDTAVWQAECLPQLNDFFSRFWAQREMEDSQPSGQVASFFEAEQVDPGHFLDNKDQEEALSLDRSSTIASDHVVDTQDLTEFLDEASSPGEFAVFLLHRLFPELFDHRKLGEQYSCYGDGGKQELDPQRLQIIRNYTEIYFPDMQEEEAWLQQCAQRINDELEGLGLDAGSEGDPPRDDCYDSSSLPDDISVVKVEDSFEGERPGRRSKKIWLVPIDFDKLEIPQPDFEVPGADCLLSKEQLRSIYESSLSIGNFASRLLVHLFPELFTHENLRKQYNCSGSLGKKQLDPSRIKLIRHYVQLLYPRAKNDRVWTLEFVGKLDERCRRRDTEQRRSYQQQRKVHVPGPECRDLTSYAINPERFREEFEGPPLPPERSSKDFCKIPLDELVVPSPDFPVPSPYLLSDKEVREIVQQSLSVGNFAARLLVRLFPELFTAENLRLQYNHSGACNKKQLDPTRLRLIRHYVEAVYPVEKMEEVWHYECIPSIDERCRRPNRKKCDILKKAKKVEK
Regarding B4, the binding result in experiment [3] was “binds”.

B5: NLRP2 (protein, UniProt Q9NX02 1-1062)
chain: MVSSAQMGFNLQALLEQLSQDELSKFKYLITTFSLAHELQKIPHKEVDKADGKQLVEILTTHCDSYWVEMASLQVFEKMHRMDLSERAKDEVREAALKSFNKRKPLSLGITRKERPPLDVDEMLERFKTEAQAFTETKGNVICLGKEVFKGKKPDKDNRCRYILKTKFREMWKSWPGDSKEVQVMAERYKMLIPFSNPRVLPGPFSYTVVLYGPAGLGKTTLAQKLMLDWAEDNLIHKFKYAFYLSCRELSRLGPCSFAELVFRDWPELQDDIPHILAQARKILFVIDGFDELGAAPGALIEDICGDWEKKKPVPVLLGSLLNRVMLPKAALLVTTRPRALRDLRILAEEPIYIRVEGFLEEDRRAYFLRHFGDEDQAMRAFELMRSNAALFQLGSAPAVCWIVCTTLKLQMEKGEDPVPTCLTRTGLFLRFLCSRFPQGAQLRGALRTLSLLAAQGLWAQTSVLHREDLERLGVQESDLRLFLDGDILRQDRVSKGCYSFIHLSFQQFLTALFYTLEKEEEEDRDGHTWDIGDVQKLLSGVERLRNPDLIQAGYYSFGLANEKRAKELEATFGCRMSPDIKQELLRCDISCKGGHSTVTDLQELLGCLYESQEEELVKEVMAQFKEISLHLNAVDVVPSSFCVKHCRNLQKMSLQVIKENLPENVTASESDAEVERSQDDQHMLPFWTDLCSIFGSNKDLMGLAINDSFLSASLVRILCEQIASDTCHLQRVVFKNISPADAHRNLCLALRGHKTVTYLTLQGNDQDDMFPALCEVLRHPECNLRYLGLVSCSATTQQWADLSLALEVNQSLTCVNLSDNELLDEGAKLLYTTLRHPKCFLQRLSLENCHLTEANCKDLAAVLVVSRELTHLCLAKNPIGNTGVKFLCEGLRYPECKLQTLVLWNCDITSDGCCDLTKLLQEKSSLLCLDLGLNHIGVKGMKFLCEALRKPLCNLRCLWLWGCSIPPFSCEDLCSALSCNQSLVTLDLGQNPLGSSGVKMLFETLTCSSGTLRTLRLKIDDFNDELNKLLEEIEEKNPQLIIDTEKHHPWAERPSSHDFMI
With B5, the binding entry in experiment [3] is on record as “binds”.
